According to the supplement of paper PMC8426693:
The other results are listed elsewhere or left out.

How the values were obtained:
Assay in all cases: NMR binding call after quantification (hit when 2 of 3 NMR criteria are met) (binary (1 = binding, 0 = not binding)); higher = binding
Settings in all cases: RNA concentration 10 µM; fragment concentration 200 µM; 293 K
[1] = test system: SARS-CoV-2 3'-UTR RNA
[2] = test system: SARS-CoV-2 3_SL1 RNA
[3] = test system: SARS-CoV-2 3_SL1+2 RNA
[4] = test system: SARS-CoV-2 3_SL2 RNA
[5] = test system: SARS-CoV-2 3_SL3base RNA
[6] = test system: SARS-CoV-2 3_s2m RNA
[7] = test system: SARS-CoV-2 5'-UTR RNA
[8] = test system: SARS-CoV-2 5_SL1 RNA
[9] = test system: SARS-CoV-2 5_SL1234 RNA
[10] = test system: SARS-CoV-2 5_SL2+3 RNA
[11] = test system: SARS-CoV-2 5_SL4 RNA
[12] = test system: SARS-CoV-2 5_SL5 RNA
[13] = test system: SARS-CoV-2 5_SL5a RNA
[14] = test system: SARS-CoV-2 5_SL5b+c RNA
[15] = test system: SARS-CoV-2 5_SL5stem RNA
[16] = test system: SARS-CoV-2 5_SL6 RNA

Row | Structure (SMILES) | NMR binding call [1] | NMR binding call [2] | NMR binding call [3] | NMR binding call [4] | NMR binding call [5] | NMR binding call [6] | NMR binding call [7] | NMR binding call [8] | NMR binding call [9] | NMR binding call [10] | NMR binding call [11] | NMR binding call [12] | NMR binding call [13] | NMR binding call [14] | NMR binding call [15] | NMR binding call [16]
1 | Cl.O=C(O)CN1CCC(c2ccccc2)CC1 | 0 | 0 | 0 | 0 | 0 | 0 | 0 | 0 | 0 | 0 | 0 | 0 | 0 | 0 | 0 | 0
2 | N#CCC(=O)N1CCC(Cc2ccccc2)CC1 | 0 | 0 | 0 | 0 | 0 | 0 | 0 | 0 | 0 | 0 | 0 | 0 | 0 | 0 | 0 | 0
3 | CCOC(=O)NCc1ccccc1 | 0 | 0 | 0 | 0 | 0 | 0 | 0 | 0 | 0 | 0 | 0 | 0 | 0 | 0 | 0 | 0
4 | Cc1ccccc1CNc1nnnn1C | 0 | 0 | 0 | 0 | 0 | 0 | 0 | 0 | 0 | 0 | 0 | 0 | 0 | 0 | 0 | 0
5 | CS(=O)(=O)NCC1CCNCC1 | 0 | 0 | 0 | 0 | 0 | 0 | 0 | 0 | 0 | 0 | 0 | 0 | 0 | 0 | 0 | 0
6 | CC(C)n1cnc(S(N)(=O)=O)c1 | 0 | 0 | 0 | 0 | 0 | 0 | 0 | 0 | 0 | 0 | 0 | 0 | 0 | 0 | 0 | 0
7 | Fc1ccc(Cn2cnc3ccccc32)cc1 | 0 | 0 | 0 | 0 | 0 | 0 | 0 | 0 | 0 | 0 | 0 | 0 | 0 | 0 | 0 | 0
8 | CC(CO)Nc1ncc(Cl)cc1F (stereo unspecified) | 0 | 0 | 0 | 0 | 0 | 0 | 0 | 0 | 0 | 0 | 0 | 0 | 0 | 0 | 0 | 0
9 | CC(C)c1nnc(NCC(C)(C)C)s1 | 0 | 0 | 0 | 0 | 0 | 0 | 0 | 0 | 0 | 0 | 0 | 0 | 0 | 0 | 0 | 0
10 | CNC(=O)NCc1c(F)cccc1Cl | 0 | 0 | 0 | 0 | 0 | 0 | 0 | 0 | 0 | 0 | 0 | 0 | 0 | 0 | 0 | 0
11 | CS(=O)(=O)Nc1ccc(-c2ccccc2)cc1 | 0 | 0 | 0 | 0 | 0 | 0 | 0 | 0 | 0 | 0 | 0 | 0 | 0 | 0 | 0 | 0
12 | CCC(=O)NC1CCNC1 (stereo unspecified) | 0 | 0 | 0 | 0 | 0 | 0 | 0 | 0 | 0 | 0 | 0 | 0 | 0 | 0 | 0 | 0
13 | Cc1ccc(CN(C)Cc2ccccc2)o1 | 0 | 0 | 0 | 0 | 0 | 0 | 0 | 0 | 0 | 0 | 0 | 0 | 0 | 0 | 0 | 0
14 | CC(=O)NCCN1CCCCCC1 | 0 | 0 | 0 | 0 | 0 | 0 | 0 | 0 | 0 | 0 | 0 | 0 | 0 | 0 | 0 | 0
15 | Cc1ccc(C)c(OC(=O)c2ccncc2)c1 | 0 | 0 | 0 | 0 | 0 | 0 | 0 | 0 | 0 | 0 | 0 | 0 | 0 | 0 | 0 | 0
16 | NC(=O)c1ccc(NC(=O)c2ccccc2)cc1 | 0 | 0 | 0 | 0 | 0 | 0 | 0 | 0 | 0 | 0 | 0 | 0 | 0 | 0 | 0 | 0
17 | Cn1ccc(NCc2ccccc2)n1 | 0 | 0 | 0 | 0 | 0 | 0 | 0 | 0 | 0 | 0 | 0 | 0 | 0 | 0 | 0 | 0
18 | CC1COCCN1CCN (stereo unspecified) | 0 | 0 | 0 | 0 | 0 | 0 | 0 | 0 | 0 | 0 | 0 | 0 | 0 | 0 | 0 | 0

Some values from the list.
CC(CO)Nc1ncc(Cl)cc1F (stereo unspecified) | NMR binding call [9]: 0
CNC(=O)NCc1c(F)cccc1Cl | NMR binding call [12]: 0

(cont.)

Row | Structure (SMILES) | NMR binding call [1] | NMR binding call [2] | NMR binding call [3] | NMR binding call [4] | NMR binding call [5] | NMR binding call [6] | NMR binding call [7] | NMR binding call [8] | NMR binding call [9] | NMR binding call [10] | NMR binding call [11] | NMR binding call [12] | NMR binding call [13] | NMR binding call [14] | NMR binding call [15] | NMR binding call [16]
19 | CNC(C)c1sc(C)nc1C (stereo unspecified) | 0 | 0 | 0 | 0 | 0 | 0 | 0 | 0 | 0 | 0 | 0 | 0 | 0 | 0 | 0 | 0
20 | CC1CN(S(=O)(=O)N(C)C(C)C)CCO1 (stereo unspecified) | 0 | 0 | 0 | 0 | 0 | 0 | 0 | 0 | 0 | 0 | 0 | 0 | 0 | 0 | 0 | 0
21 | NC(=O)c1ccc(NC(=O)C2CCCO2)cc1 (stereo unspecified) | 0 | 0 | 0 | 0 | 0 | 0 | 0 | 0 | 0 | 0 | 0 | 0 | 0 | 0 | 0 | 0
22 | CCOc1ncccc1C(N)=O | 0 | 0 | 0 | 0 | 0 | 0 | 0 | 0 | 0 | 0 | 0 | 0 | 0 | 0 | 0 | 0
23 | O=C(CC1CCCCC1)Nn1cnnc1 | 0 | 0 | 0 | 0 | 0 | 0 | 0 | 0 | 0 | 0 | 0 | 0 | 0 | 0 | 0 | 0
24 | CCS(=O)(=O)N1CCC(C(=O)O)CC1 | 0 | 0 | 0 | 0 | 0 | 0 | 0 | 0 | 0 | 0 | 0 | 0 | 0 | 0 | 0 | 0
25 | O=C(c1csnn1)N1CCOCC1 | 0 | 0 | 0 | 0 | 0 | 0 | 0 | 0 | 0 | 0 | 0 | 0 | 0 | 0 | 0 | 0
26 | CN(C)Cc1ccc(C(=O)O)o1.Cl | 0 | 0 | 0 | 0 | 0 | 0 | 0 | 0 | 0 | 0 | 0 | 0 | 0 | 0 | 0 | 0
27 | CC(=O)N1CCN(C(N)=O)CC1 | 0 | 0 | 0 | 0 | 0 | 0 | 0 | 0 | 0 | 0 | 0 | 0 | 0 | 0 | 0 | 0
28 | CC(=O)NCc1cncs1 | 0 | 0 | 0 | 0 | 0 | 0 | 0 | 0 | 0 | 0 | 0 | 0 | 0 | 0 | 0 | 0
29 | CNCc1ccncc1 | 0 | 0 | 0 | 0 | 0 | 0 | 0 | 0 | 0 | 0 | 0 | 0 | 0 | 0 | 0 | 0
30 | C1CN(Cc2nc(C3CC3)no2)CCO1 | 0 | 0 | 0 | 0 | 0 | 0 | 0 | 0 | 0 | 0 | 0 | 0 | 0 | 0 | 0 | 0
31 | c1cc(NCC2CCCO2)ccn1 (stereo unspecified) | 0 | 0 | 0 | 0 | 0 | 0 | 0 | 0 | 0 | 0 | 0 | 0 | 0 | 0 | 0 | 0
32 | Cc1cccc(NC(=O)C2CCCN2)n1 (stereo unspecified) | 0 | 0 | 0 | 0 | 0 | 0 | 0 | 0 | 0 | 0 | 0 | 0 | 0 | 0 | 0 | 0
33 | CNCc1ccc(C(F)(F)F)cc1 | 0 | 0 | 1 | 0 | 1 | 0 | 0 | 0 | 0 | 0 | 0 | 0 | 0 | 0 | 0 | 0
34 | CS(=O)(=O)N1CCC(O)CC1 | 0 | 0 | 0 | 0 | 0 | 0 | 0 | 0 | 0 | 0 | 0 | 0 | 0 | 0 | 0 | 0
35 | CC(=O)N1CCN(CCCc2ccccc2)CC1 | 0 | 0 | 0 | 0 | 0 | 0 | 0 | 0 | 0 | 0 | 0 | 0 | 0 | 0 | 0 | 0
36 | NC(=O)C1CCN(CCc2ccccc2)CC1 | 0 | 0 | 0 | 0 | 0 | 0 | 0 | 0 | 0 | 0 | 0 | 0 | 0 | 0 | 0 | 0
